pEC50: −log10 of the molar value. Where two headings read alike, the source gives them in different places.
Tested on: human neural stem cells (hNSCs)
Experiment: Neuronal differentiation of human neural stem cells (TUJ-1 staining, concentration response curves)
Assay type: cell-based
Conditions: Neural stem cell, agent alone
Text: Mitogen-free test media with a positive control for neuronal differentiation was used along with basal media without growth factors as a negative control. […]

Row | Structure (SMILES) | pEC50 (extrapolated, read-out: EC50 of neuronal differentiation, agent used alone, estimated by extrapolation of the observed data) | pEC50 (percentage of neuronal positive control, basal media subtracted, read-out: EC50 of neuronal differentiation, agent used alone)
1 | CC(=O)Nc1nnc(S(N)(=O)=O)s1 [acetazolamide] | 4.18 | 
2 | CC/C(=C(\c1ccccc1)c1ccc(OCCN(C)C)cc1)c1ccccc1 [tamoxifen] |  | 5.82
